Laboratory results taken from US12729225B2, “Non-canonical SWI/SNF complex and uses thereof” (Dana-Farber Cancer Institute, Inc., priority 2018, dated 2026).

B1: HSD17B10 (protein, UniProt Q99714 2-261, looked up)
3-hydroxyacyl-CoA …: AAACRSVKGLVAVITGGASGLGLATAERLVGQGASAVLLDLPNSGGEAQAKKLGNNCVFAPADVTSEKDVQTALALAKGKFGRVDVAVNCAGIAVASKTYNLKKGQTHTLEDFQRVLDVNLMGTFNVIRLVAGEMGQNEPDQGGQRGVIINTASVAAFEGQVGQAAYSASKGGIVGMTLPIARDLAPIGIRVMTIAPGLFGTPLLTSLPEKVCNFLASQVPFPSRLGDPAEYAHLVQAIIENPFLNGEVIRLDGAIRMQP
B2: PUF60 (protein, UniProt Q9UHX1 1-559, looked up)
Poly(U)-binding-splicing …: MATATIALQVNGQQGGGSEPAAAAAVVAAGDKWKPPQGTDSIKMENGQSTAAKLGLPPLTPEQQEALQKAKKYAMEQSIKSVLVKQTIAHQQQQLTNLQMAAVTMGFGDPLSPLQSMAAQRQRALAIMCRVYVGSIYYELGEDTIRQAFAPFGPIKSIDMSWDSVTMKHKGFAFVEYEVPEAAQLALEQMNSVMLGGRNIKVGRPSNIGQAQPIIDQLAEEARAFNRIYVASVHQDLSDDDIKSVFEAFGKIKSCTLARDPTTGKHKGYGFIEYEKAQSSQDAVSSMNLFDLGGQYLRVGKAVTPPMPLLTPATPGGLPPAAAVAAAAATAKITAQEAVAGAAVLGTLGTPGLVSPALTLAQPLGTLPQAVMAAQAPGVITGVTPARPPIPVTIPSVGVVNPILASPPTLGLLEPKKEKEEEELFPESERPEMLSEQEHMSISGSSARHMVMQKLLRKQESTVMVLRNMVDPKDIDDDLEGEVTEECGKFGAVNRVIIYQEKQGEEEDAEIIVKIFVEFSIASETHKAIQALNGRWFAGRKVVAEVYDQERFDNSDLSA
B3: API5 (protein, UniProt Q9BZZ5 2-524, looked up)
Apoptosis inhibitor 5: PTVEELYRNYGILADATEQVGQHKDAYQVILDGVKGGTKEKRLAAQFIPKFFKHFPELADSAINAQLDLCEDEDVSIRRQAIKELPQFATGENLPRVADILTQLLQTDDSAEFNLVNNALLSIFKMDAKGTLGGLFSQILQGEDIVRERAIKFLSTKLKTLPDEVLTKEVEELILTESKKVLEDVTGEEFVLFMKILSGLKSLQTVSGRQQLVELVAEQADLEQTFNPSDPDCVDRLLQCTRQAVPLFSKNVHSTRFVTYFCEQVLPNLGTLTTPVEGLDIQLEVLKLLAEMSSFCGDMEKLETNLRKLFDKLLEYMPLPPEEAENGENAGNEEPKLQFSYVECLLYSFHQLGRKLPDFLTAKLNAEKLKDFKIRLQYFARGLQVYIRQLRLALQGKTGEALKTEENKIKVVALKITNNINVLIKDLFHIPPSYKSTVTLSWKPVQKVEIGQKRASEDTTSGSPPKKSSAGPKRDARQIYNPPSGKYSSNLGNFNYEQRGAFRGSRGGRGWGTRGNRSRGRLY
B4: COPB1 (protein, UniProt P53618 2-953, looked up)
Coatomer subunit beta: TAAENVCYTLINVPMDSEPPSEISLKNDLEKGDVKSKTEALKKVIIMILNGEKLPGLLMTIIRFVLPLQDHTIKKLLLVFWEIVPKTTPDGRLLHEMILVCDAYRKDLQHPNEFIRGSTLRFLCKLKEAELLEPLMPAIRACLEHRHSYVRRNAVLAIYTIYRNFEHLIPDAPELIHDFLVNEKDASCKRNAFMMLIHADQDRALDYLSTCIDQVQTFGDILQLVIVELIYKVCHANPSERARFIRCIYNLLQSSSPAVKYEAAGTLVTLSSAPTAIKAAAQCYIDLIIKESDNNVKLIVLDRLIELKEHPAHERVLQDLVMDILRVLSTPDLEVRKKTLQLALDLVSSRNVEELVIVLKKEVIKTNNVSEHEDTDKYRQLLVRTLHSCSVRFPDMAANVIPVLMEFLSDNNEAAAADVLEFVREAIQRFDNLRMLIVEKMLEVFHAIKSVKIYRGALWILGEYCSTKEDIQSVMTEIRRSLGEIPIVESEIKKEAGELKPEEEITVGPVQKLVTEMGTYATQSALSSSRPTKKEEDRPPLRGFLLDGDFFVAASLATTLTKIALRYVALVQEKKKQNSFVAEAMLLMATILHLGKSSLPKKPITDDDVDRISLCLKVLSECSPLMNDIFNKECRQSLSHMLSAKLEEEKLSQKKESEKRNVTVQPDDPISFMQLTAKNEMNCKEDQFQLSLLAAMGNTQRKEAADPLASKLNKVTQLTGFSDPVYAEAYVHVNQYDIVLDVLVVNQTSDTLQNCTLELATLGDLKLVEKPSPLTLAPHDFANIKANVKVASTENGIIFGNIVYDVSGAASDRNCVVLSDIHIDIMDYIQPATCTDAEFRQMWAEFEWENKVTVNTNMVDLNDYLQHILKSTNMKCLTPEKALSGYCGFMAANLYARSIFGEDALANVSIEKPIHQGPDAAVTGHIRIRAKSQGMALSLGDKINLSQKKTSI

System: mSWI/SNF complexes
Test: mSWI/SNF complex purification with HA-tagged baits and mass spectrometry (peptide counts)
Parameters: species or system human
[1] = 293_HA-BRD7 bait purification, mass spectrometry, total peptides per co-purified protein
[2] = 293_HA-BRD7 bait purification, mass spectrometry, unique peptides per co-purified protein

Molecule | Total [1] | Unique [2] | Total (293_HA-BRD7: HA-BRD7 bait purification, total peptide count per co-purified protein) | Unique (293_HA-BRD7: HA-BRD7 bait purification, unique peptide count per co-purified protein)
B1 | 2 | 2 |  | 
B2 | 2 | 2 | 22 | 19
B3 | 2 | 2 |  | 
B4 | 2 | 2 |  | 
